From article PMC4860962 come the findings set out here.

Protein sequences, listed by entry. Tags and fused reporters are not part of them.
UniProt Q00987: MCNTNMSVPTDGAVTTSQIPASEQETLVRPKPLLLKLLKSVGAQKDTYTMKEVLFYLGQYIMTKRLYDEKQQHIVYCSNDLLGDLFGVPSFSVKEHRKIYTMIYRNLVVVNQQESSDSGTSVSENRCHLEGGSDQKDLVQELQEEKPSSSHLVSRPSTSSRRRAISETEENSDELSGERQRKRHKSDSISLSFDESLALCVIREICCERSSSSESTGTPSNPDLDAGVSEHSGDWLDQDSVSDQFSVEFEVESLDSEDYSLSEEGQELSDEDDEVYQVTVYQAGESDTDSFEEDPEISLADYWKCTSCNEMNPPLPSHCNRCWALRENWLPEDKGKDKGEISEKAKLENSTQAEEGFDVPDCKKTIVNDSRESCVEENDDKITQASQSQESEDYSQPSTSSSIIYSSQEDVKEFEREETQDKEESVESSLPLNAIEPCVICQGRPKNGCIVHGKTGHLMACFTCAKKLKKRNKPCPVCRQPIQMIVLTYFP

Results are given in words; binding and its absence hold for the method and conditions named. Binding seen in cells or lysates may run through a third protein. Some binding calls cover weakened binding; strength is not graded here. Where a sequence is shown, tags or fusion partners need not be part of it.

Assay [1] deals with T1, Flag/HA-SMG7 transiently expressed in H1299 cells (human) (UniProt Q92540).
T1 sequence: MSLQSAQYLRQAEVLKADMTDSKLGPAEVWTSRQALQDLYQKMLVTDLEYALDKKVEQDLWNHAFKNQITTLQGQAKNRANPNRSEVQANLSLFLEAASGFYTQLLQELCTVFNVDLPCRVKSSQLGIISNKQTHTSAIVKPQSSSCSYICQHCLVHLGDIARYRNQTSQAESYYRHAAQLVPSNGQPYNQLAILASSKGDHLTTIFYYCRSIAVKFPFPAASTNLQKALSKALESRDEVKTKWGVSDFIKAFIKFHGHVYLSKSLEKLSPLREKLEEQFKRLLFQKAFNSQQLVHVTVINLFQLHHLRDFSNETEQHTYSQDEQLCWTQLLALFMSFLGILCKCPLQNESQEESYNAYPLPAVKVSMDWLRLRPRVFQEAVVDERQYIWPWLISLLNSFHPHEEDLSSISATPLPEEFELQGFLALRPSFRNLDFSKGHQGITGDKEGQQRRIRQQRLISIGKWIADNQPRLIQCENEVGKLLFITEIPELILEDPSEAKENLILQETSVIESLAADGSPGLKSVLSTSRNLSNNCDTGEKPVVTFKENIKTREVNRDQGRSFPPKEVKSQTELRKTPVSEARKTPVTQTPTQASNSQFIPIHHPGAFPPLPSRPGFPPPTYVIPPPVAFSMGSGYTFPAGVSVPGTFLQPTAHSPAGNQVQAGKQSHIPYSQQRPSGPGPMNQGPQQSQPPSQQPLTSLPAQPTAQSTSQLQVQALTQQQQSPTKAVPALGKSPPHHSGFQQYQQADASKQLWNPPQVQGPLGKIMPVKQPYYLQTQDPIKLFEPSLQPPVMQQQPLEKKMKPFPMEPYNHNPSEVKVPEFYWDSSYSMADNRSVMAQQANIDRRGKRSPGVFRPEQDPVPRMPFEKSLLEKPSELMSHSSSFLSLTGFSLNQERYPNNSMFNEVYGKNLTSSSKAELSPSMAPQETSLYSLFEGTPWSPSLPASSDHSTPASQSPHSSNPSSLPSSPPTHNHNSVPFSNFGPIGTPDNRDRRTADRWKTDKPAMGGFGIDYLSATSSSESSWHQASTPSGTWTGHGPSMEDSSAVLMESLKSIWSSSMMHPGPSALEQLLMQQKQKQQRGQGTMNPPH
The assay is described as follows: co-IP; α-Flag M2 agarose immunoprecipitation from BC100 extracts of cells expressing the Flag- or Flag-HA-tagged protein (H1299 or 293 transient, U2OS stable), Flag peptide elution, western blot.

For assay [2], the target named is T2, Flag/HA-SMG7 stably expressed in U2OS cells (human) (UniProt Q92540).
T2 sequence: T1 sequence
Described as above.

As for “Mdm2 transiently expressed in H1299 cells (from UniProt Q00987 1-491)”, in assay [1], the binding result is “binds”. In the case of “Mdm2, endogenous in U2OS cells (from UniProt Q00987 1-491)”, the binding result in assay [2] is recorded as “binds”.
